The list shows a part of the results. Residues, ends and D or L forms follow the SMILES beside them. *: point of attachment. Cbz = O=C(OCc1ccccc1)*
What was measured:
Assay in all cases: log2 fold change, soluble protein after heating vs DMSO (PISA); higher = thermal stabilisation; K562 cells, 10 uM, 30 min; active = over 0.2 and 3.5 SD of the protein, either way, in both replicates (recomputed)
erlotinib = compound: C#Cc1cccc(Nc2ncnc3cc(OCCOC)c(OCCOC)cc23)c1 [erlotinib]
Method in brief: (§1)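 K562 cells at 2×10^6 cells/mL were exposed to 10 μM compound for 30 min, then aliquots were heated for 3 min across 48°C-58°C, pooled, and extracted in PBS containing 0.5% NP-40 at 4°C. The supernatant after 21,000xg for 90 min was taken as soluble protein and measured by TMTpro 16plex LC-MS/MS with channel sums equalised. Thermal stability is reported relative to control samples, with values from duplicates. Fold changes are given on a log2 scale.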

Amino acid sequences for entries named in this document (tags omitted). A change or cut given only in a name is not applied to a line headed by its entry.
UniProt P04350, whole entry, looked up: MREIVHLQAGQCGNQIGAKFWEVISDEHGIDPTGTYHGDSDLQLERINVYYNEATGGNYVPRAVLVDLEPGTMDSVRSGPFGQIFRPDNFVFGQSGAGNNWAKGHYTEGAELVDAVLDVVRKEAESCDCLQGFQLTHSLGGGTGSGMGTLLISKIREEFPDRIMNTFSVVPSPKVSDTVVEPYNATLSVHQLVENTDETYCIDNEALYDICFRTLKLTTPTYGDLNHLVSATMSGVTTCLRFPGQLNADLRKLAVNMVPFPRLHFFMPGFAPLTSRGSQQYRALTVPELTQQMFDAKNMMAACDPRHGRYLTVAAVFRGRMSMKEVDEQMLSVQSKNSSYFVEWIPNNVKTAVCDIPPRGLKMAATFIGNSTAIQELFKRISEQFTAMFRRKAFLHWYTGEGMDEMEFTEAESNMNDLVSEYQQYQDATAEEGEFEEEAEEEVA
UniProt Q9NNW7, whole entry, looked up: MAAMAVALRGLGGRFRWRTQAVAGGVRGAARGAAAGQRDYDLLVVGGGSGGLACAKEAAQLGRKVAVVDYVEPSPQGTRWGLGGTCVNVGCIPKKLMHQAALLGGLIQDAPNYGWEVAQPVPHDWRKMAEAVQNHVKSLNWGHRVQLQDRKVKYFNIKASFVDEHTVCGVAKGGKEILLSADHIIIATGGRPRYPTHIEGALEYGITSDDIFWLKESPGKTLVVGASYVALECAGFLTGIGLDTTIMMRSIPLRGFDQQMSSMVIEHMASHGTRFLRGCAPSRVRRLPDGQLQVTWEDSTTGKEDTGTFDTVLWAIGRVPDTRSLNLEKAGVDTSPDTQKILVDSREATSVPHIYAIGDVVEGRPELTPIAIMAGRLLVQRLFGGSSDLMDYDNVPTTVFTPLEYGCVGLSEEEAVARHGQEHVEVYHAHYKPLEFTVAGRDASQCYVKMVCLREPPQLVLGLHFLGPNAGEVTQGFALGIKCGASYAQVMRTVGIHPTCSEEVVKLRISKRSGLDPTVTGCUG
UniProt Q8NG11: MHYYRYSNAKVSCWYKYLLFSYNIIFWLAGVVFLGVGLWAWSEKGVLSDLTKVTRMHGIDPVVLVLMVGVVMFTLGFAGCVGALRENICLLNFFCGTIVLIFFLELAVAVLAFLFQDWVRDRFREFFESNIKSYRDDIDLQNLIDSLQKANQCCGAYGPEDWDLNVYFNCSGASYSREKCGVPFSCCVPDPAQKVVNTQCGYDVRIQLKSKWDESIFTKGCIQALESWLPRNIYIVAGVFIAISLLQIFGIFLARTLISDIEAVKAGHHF
UniProt Q8NBS9: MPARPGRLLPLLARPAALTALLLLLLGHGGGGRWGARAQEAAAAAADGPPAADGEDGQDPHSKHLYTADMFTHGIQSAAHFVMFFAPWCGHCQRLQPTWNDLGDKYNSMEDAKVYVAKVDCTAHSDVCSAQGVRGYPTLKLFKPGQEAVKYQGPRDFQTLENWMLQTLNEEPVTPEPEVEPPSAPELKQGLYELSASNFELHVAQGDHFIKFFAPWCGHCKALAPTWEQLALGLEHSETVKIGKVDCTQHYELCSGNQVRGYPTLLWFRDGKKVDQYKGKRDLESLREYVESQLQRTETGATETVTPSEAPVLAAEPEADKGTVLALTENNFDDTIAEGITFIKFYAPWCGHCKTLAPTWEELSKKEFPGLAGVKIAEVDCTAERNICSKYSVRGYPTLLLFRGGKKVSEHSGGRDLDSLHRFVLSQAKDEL
UniProt P68036, whole entry, looked up: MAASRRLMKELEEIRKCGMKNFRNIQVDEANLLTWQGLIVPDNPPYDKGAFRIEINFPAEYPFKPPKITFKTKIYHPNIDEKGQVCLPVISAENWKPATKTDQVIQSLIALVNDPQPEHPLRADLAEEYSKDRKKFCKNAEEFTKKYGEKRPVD
UniProt Q6DKK2: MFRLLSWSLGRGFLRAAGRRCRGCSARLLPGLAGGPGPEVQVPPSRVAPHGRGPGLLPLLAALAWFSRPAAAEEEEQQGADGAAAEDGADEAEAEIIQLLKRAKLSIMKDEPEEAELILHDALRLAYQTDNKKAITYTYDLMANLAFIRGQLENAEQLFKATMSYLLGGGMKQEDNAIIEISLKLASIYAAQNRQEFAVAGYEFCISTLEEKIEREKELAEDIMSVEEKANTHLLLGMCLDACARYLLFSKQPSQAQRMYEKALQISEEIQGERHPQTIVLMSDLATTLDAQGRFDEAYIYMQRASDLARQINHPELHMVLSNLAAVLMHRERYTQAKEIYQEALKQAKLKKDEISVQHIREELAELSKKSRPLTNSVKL
UniProt P0DPH7, whole entry, looked up: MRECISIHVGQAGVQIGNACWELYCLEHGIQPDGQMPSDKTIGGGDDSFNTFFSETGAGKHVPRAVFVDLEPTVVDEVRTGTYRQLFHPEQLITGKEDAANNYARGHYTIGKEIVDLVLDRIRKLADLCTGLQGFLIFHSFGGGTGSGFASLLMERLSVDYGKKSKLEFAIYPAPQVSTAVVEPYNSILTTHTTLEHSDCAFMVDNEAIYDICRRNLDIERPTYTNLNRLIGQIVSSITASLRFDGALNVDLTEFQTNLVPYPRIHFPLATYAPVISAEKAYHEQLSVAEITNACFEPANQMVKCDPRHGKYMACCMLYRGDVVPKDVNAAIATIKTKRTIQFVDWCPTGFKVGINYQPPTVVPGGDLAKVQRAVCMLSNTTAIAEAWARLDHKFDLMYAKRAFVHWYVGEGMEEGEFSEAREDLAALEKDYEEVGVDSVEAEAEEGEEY
UniProt Q8NG68: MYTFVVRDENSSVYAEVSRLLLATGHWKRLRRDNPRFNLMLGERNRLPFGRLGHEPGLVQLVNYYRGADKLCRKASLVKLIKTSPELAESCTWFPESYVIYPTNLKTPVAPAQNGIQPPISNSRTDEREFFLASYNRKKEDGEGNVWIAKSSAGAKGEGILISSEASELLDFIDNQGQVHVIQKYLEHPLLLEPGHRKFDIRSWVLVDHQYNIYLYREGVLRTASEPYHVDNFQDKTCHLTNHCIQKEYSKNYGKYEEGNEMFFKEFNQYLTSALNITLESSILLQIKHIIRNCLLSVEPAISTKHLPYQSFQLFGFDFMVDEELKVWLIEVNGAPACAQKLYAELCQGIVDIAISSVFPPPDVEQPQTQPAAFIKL
UniProt Q9C0C9: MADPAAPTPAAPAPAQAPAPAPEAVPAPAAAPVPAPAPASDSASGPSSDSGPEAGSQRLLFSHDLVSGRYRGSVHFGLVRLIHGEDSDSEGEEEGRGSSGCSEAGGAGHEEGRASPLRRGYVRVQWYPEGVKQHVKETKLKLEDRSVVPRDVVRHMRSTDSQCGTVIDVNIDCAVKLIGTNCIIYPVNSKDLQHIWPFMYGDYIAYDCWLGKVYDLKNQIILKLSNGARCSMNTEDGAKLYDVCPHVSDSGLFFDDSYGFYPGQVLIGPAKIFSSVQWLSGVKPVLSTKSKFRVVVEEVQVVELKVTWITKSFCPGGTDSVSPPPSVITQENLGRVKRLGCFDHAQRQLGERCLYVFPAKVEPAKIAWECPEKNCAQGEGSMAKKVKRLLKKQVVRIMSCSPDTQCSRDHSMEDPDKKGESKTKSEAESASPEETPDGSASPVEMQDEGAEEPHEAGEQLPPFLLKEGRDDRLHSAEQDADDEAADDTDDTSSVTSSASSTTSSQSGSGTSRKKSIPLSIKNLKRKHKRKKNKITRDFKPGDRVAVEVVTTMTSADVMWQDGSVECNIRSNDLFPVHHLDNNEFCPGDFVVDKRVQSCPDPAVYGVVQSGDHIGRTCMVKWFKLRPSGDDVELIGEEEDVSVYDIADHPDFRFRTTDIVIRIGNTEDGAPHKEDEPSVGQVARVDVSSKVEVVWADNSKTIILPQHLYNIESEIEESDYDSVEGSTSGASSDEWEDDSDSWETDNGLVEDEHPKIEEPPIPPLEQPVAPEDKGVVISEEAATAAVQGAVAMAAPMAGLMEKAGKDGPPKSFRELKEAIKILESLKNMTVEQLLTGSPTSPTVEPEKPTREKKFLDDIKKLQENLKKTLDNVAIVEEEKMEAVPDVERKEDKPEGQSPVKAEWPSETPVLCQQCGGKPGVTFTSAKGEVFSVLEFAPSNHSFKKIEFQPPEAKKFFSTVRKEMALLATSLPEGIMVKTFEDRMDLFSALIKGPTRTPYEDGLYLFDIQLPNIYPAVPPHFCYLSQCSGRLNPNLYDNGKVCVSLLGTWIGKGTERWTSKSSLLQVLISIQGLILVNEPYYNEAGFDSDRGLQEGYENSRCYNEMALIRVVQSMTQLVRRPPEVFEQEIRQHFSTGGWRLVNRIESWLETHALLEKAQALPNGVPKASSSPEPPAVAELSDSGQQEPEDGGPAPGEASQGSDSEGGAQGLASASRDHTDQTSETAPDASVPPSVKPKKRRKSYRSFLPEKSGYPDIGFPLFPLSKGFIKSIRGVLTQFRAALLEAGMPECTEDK
UniProt Q9H832: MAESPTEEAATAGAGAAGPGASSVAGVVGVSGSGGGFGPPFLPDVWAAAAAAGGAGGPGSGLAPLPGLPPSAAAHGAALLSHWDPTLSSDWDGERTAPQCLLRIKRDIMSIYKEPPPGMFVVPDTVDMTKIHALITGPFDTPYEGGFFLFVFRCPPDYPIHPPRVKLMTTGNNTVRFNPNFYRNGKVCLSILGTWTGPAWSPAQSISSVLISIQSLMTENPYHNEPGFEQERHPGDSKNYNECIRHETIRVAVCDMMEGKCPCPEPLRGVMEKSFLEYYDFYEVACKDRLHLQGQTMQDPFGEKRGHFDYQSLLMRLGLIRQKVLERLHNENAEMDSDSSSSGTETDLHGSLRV
UniProt Q9BSL1: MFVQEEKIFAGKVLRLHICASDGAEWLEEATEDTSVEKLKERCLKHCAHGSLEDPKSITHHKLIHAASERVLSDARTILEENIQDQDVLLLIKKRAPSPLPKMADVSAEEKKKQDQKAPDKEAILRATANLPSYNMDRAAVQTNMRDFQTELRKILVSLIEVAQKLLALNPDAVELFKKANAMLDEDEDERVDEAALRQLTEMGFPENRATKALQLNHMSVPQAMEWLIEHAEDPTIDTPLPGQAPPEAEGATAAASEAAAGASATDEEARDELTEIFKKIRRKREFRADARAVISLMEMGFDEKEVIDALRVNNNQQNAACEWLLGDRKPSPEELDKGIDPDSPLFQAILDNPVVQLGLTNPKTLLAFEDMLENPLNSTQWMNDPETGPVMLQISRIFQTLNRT
UniProt Q9BRA2: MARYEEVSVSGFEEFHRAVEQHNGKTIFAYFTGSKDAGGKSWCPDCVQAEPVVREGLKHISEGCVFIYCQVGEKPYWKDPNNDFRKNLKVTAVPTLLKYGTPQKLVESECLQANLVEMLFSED
UniProt Q9NUQ3: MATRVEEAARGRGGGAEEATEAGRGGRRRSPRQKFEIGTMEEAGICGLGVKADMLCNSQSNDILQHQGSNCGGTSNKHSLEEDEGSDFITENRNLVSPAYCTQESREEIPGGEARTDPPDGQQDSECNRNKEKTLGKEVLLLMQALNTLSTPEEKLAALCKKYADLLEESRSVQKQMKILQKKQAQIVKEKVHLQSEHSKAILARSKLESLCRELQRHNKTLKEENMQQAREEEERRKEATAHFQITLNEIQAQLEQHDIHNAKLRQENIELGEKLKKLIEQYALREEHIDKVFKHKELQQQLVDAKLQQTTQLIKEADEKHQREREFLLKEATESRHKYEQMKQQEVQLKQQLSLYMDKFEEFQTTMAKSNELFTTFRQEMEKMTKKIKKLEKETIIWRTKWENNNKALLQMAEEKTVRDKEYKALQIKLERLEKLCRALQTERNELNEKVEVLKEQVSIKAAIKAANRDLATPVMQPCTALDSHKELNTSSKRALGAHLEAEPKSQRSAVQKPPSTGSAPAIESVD
UniProt Q5BVD1: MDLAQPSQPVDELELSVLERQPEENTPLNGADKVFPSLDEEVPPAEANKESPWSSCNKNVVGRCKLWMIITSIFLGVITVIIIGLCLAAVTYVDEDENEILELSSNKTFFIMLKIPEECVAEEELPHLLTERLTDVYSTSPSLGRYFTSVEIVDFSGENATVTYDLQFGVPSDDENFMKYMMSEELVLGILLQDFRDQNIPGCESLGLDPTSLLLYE
UniProt Q99598: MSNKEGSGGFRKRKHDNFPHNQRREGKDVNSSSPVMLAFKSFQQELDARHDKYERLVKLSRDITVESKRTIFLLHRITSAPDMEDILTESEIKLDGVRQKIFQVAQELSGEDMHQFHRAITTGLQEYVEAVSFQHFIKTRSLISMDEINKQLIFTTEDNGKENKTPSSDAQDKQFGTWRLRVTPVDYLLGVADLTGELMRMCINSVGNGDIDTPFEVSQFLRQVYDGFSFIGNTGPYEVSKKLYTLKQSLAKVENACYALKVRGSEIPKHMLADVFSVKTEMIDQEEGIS

[1] = compound: C/C(=N\NC(=O)C1=CC(=CC=C1)S(=O)(=O)N2CCOCC2)/C3=C(C=CC(=C3)Cl)O
Method in brief: as §1

[2] = compound: C1=CC(=C(C=C1Cl)C2=NC3=NC=CN=C3C(=N2)NC4=CC=NC=C4)F
Method in brief: as §1

[3] = compound: C1=CC(=CC=C1C2=NC3=C(N2)C=C(C=C3)C(=O)N)OC4=CC=C(C=C4)Cl
Method in brief: as §1

[4] = compound: C1=CC2=C(C=CC(=C2)/C=C\3/C(=O)NC(=NCC4=CC=CS4)S3)N=C1
Method in brief: as §1

[5] = compound: C1=CC2=NC=CN=C2C=C1/C=C/3\C(=O)NC(=O)S3
Method in brief: as §1

[6] = compound: C1=CC=C(C=C1)C2=NC(=C(N2)C3=CC=NC=C3)C4=CC(=C(C=C4)Cl)O
Method in brief: as §1

[7] = compound: C1=CC=C2C(=C1)C3=NNC4=CC=CC(=C43)C2=O
Method in brief: as §1

[8] = compound: C1CCN(C1)C(=O)NC2=CC=CC(=C2)NC3=NC=C(C(=N3)NCCC4=CN=CN4)Br
Method in brief: as §1

[9] = compound: C1CN(CCC1(CC2=CC=C(C=C2)Cl)N)C3=NC=NC4=C3C=CN4
Method in brief: as §1

IRAK-1-4 Inhibitor I = compound: C1COCCN1CCN2C3=CC=CC=C3N=C2NC(=O)C4=CC(=CC=C4)[N+](=O)[O-] [IRAK-1-4 Inhibitor I]
Method in brief: as §1

ibrutinib = compound: C=CC(=O)N1CCC[C@@H](n2nc(-c3ccc(Oc4ccccc4)cc3)c3c(N)ncnc32)C1 [ibrutinib]
Method in brief: as §1

[10] = compound: CC(=O)c1cnc2ccc(-c3cc(Cl)c(O)c(Cl)c3)nc2c1N[C@H]1CC[C@H](CN(C)C)CC1
Method in brief: as §1

ralimetinib = compound: CC(C)(C)Cn1c(N)nc2ccc(-c3[nH]c(C(C)(C)C)nc3-c3ccc(F)cc3)nc21 [ralimetinib]
Method in brief: as §1

[11] = compound: CC(C)(O)CC(=O)NCCn1ccc2ncnc(Nc3ccc(Oc4cccc(C(F)(F)F)c4)c(Cl)c3)c21
Method in brief: as §1

[12] = compound: CC(C)C1=C2N=C(C=C(N2N=C1)NCC3=CC=CC=C3)NCCCCCCN
Method in brief: as §1

[13] = compound: CC(C)C[C@@H](C=O)NC(=O)[C@H](CC(C)C)NC(=O)[C@H](CC(C)C)NC(=O)OCc1ccccc1
Method in brief: as §1

pinometostat = compound: CC(C)N(C[C@H]1O[C@@H](n2cnc3c(N)ncnc32)[C@H](O)[C@@H]1O)[C@H]1C[C@@H](CCc2nc3cc(C(C)(C)C)ccc3[nH]2)C1 [pinometostat]
Method in brief: as §1

[14] = compound: CC1=C(C(CC(=O)N1)C2=CC=C(C=C2)C(F)(F)F)C(=O)NC3=C(C=C4C(=C3)C=NN4)F
Method in brief: as §1

[15] = compound: CC1=C(C2=C(C=C1)C(=O)C3=CC=CC=C3N2CCCN)C
Method in brief: as §1

Measured: log2 fold change

TUBB4A (UniProt P04350)
inactive: erlotinib -0.034 | [1] 0.062 | [2] 0.418 | [3] 0.141 | [4] 0.027 | [5] 0.153 | [6] 0.039 | [7] 0.039 | [8] 0.029 | [9] 0.295 | IRAK-1-4 Inhibitor I 0.062 | ibrutinib 0.168 | [10] 0.009 | ralimetinib 0.111 | [11] -0.066 | [12] 0.008 | [13] -0.074 | pinometostat -0.037 | [14] -0.017 | [15] 0.16

TXNRD2 (UniProt Q9NNW7)
inactive: erlotinib 0.057 | [1] 0.042 | [2] -0.053 | [3] -0.003 | [4] 0.002 | [5] 0.079 | [6] 0.016 | [7] 0.025 | [8] -0.031 | [9] 0.068 | IRAK-1-4 Inhibitor I 0.005 | ibrutinib 0.007 | [10] -0.016 | ralimetinib -0.047 | [11] -0.055 | [12] 0.075 | [13] 0.003 | pinometostat -0.046 | [14] 0.07 | [15] -0.01

TSPAN14 (UniProt Q8NG11)
inactive: erlotinib 0.007 | [1] -0.02 | [2] -0.008 | [3] -0.025 | [4] 0.049 | [5] 0.042 | [6] -0.073 | [7] -0.059 | [8] 0.024 | [9] 0.046 | IRAK-1-4 Inhibitor I 0.028 | ibrutinib 0.007 | [10] -0.032 | ralimetinib -0.117 | [11] -0.037 | [12] 0.01 | [13] 0.007 | pinometostat -0.028 | [14] 0.012 | [15] 0.049

TXNDC5 (UniProt Q8NBS9)
inactive: erlotinib -0.011 | [1] 0 | [2] 0.089 | [3] -0.025 | [4] -0.026 | [5] 0.012 | [6] -0.008 | [7] -0.035 | [8] 0.003 | [9] 0.039 | IRAK-1-4 Inhibitor I 0.011 | ibrutinib -0.013 | [10] 0.006 | ralimetinib -0.057 | [11] 0.029 | [12] 0.024 | [13] -0.035 | pinometostat -0.063 | [14] 0.005 | [15] -0.01

UBE2L3 isoform 3 (UniProt P68036)
inactive: erlotinib 0.022 | [1] -0.034 | [2] 0.045 | [3] 0.012 | [4] -0.049 | [5] 0.003 | [6] -0.027 | [7] 0 | [8] 0.044 | [9] 0.047 | IRAK-1-4 Inhibitor I 0.032 | ibrutinib -0.003 | [10] 0.05 | ralimetinib -0.03 | [11] 0.043 | [12] 0.074 | [13] 0.005 | pinometostat -0.085 | [14] -0.008 | [15] -0.032

TTC19 (UniProt Q6DKK2)
inactive: erlotinib 0.025 | [1] 0.018 | [2] 0.016 | [3] -0.004 | [4] 0.036 | [5] -0.001 | [6] 0.021 | [7] -0.024 | [8] 0.011 | [9] -0.004 | IRAK-1-4 Inhibitor I 0.051 | ibrutinib -0.014 | [10] 0.012 | ralimetinib -0.027 | [11] 0.037 | [12] -0.142 | [13] 0.007 | pinometostat -0.025 | [14] 0.017 | [15] 0.024

TUBA3C (UniProt P0DPH7)
inactive: erlotinib 0.101 | [1] -0.032 | [2] 0.072 | [3] 0.079 | [4] -0.002 | [5] 0.011 | [6] 0.004 | [7] -0.026 | [8] 0.071 | [9] 0.059 | IRAK-1-4 Inhibitor I 0.053 | ibrutinib 0.029 | [10] 0.051 | ralimetinib -0.04 | [11] -0.053 | [12] 0.032 | [13] -0.004 | pinometostat 0.001 | [14] 0.081 | [15] 0.011

TTL (UniProt Q8NG68)
inactive: erlotinib 0.064 | [1] -0.04 | [2] 0.043 | [3] 0.012 | [4] 0.054 | [5] -0.004 | [6] -0.046 | [7] -0.032 | [8] -0.027 | [9] 0.033 | IRAK-1-4 Inhibitor I 0.047 | ibrutinib 0.063 | [10] -0.009 | ralimetinib -0.071 | [11] 0.038 | [12] -0.019 | [13] 0.013 | pinometostat 0.014 | [14] -0.049 | [15] -0.021

UBE2O (UniProt Q9C0C9)
inactive: erlotinib 0.123 | [1] -0.05 | [2] 0.049 | [3] -0.009 | [4] 0.077 | [5] 0.01 | [6] 0.06 | [7] 0.017 | [8] -0.033 | [9] 0.041 | IRAK-1-4 Inhibitor I 0.019 | ibrutinib 0.007 | [10] 0.005 | ralimetinib 0.088 | [11] -0.093 | [12] 0.031 | [13] -0.035 | pinometostat 0.002 | [14] 0.01 | [15] 0.042

UBE2Z (UniProt Q9H832)
inactive: erlotinib 0.046 | [1] 0.079 | [2] 0.048 | [3] 0.006 | [4] 0.026 | [5] 0.022 | [6] -0.097 | [7] -0.046 | [8] 0 | [9] 0.043 | IRAK-1-4 Inhibitor I 0.058 | ibrutinib 0 | [10] 0.016 | ralimetinib -0.053 | [11] -0.028 | [12] 0.019 | [13] 0.053 | pinometostat -0.022 | [14] 0.01 | [15] -0.018

UBAC1 (UniProt Q9BSL1)
inactive: erlotinib 0.011 | [1] 0.028 | [2] 0.049 | [3] -0.014 | [4] 0.027 | [5] 0.023 | [6] -0.009 | [7] -0.038 | [8] 0.004 | [9] -0.051 | IRAK-1-4 Inhibitor I 0 | ibrutinib -0.026 | [10] 0.024 | ralimetinib 0.011 | [11] -0.033 | [12] -0.108 | [13] 0.036 | pinometostat -0.024 | [14] 0.005 | [15] -0.086

Reprinted at random: 2 records from the list, in no set order.
TTL (UniProt Q8NG68)
inactive: erlotinib 0.064 | [1] -0.04 | [2] 0.043 | [3] 0.012 | [4] 0.054 | [5] -0.004 | [6] -0.046 | [7] -0.032 | [8] -0.027 | [9] 0.033 | IRAK-1-4 Inhibitor I 0.047 | ibrutinib 0.063 | [10] -0.009 | ralimetinib -0.071 | [11] 0.038 | [12] -0.019 | [13] 0.013 | pinometostat 0.014 | [14] -0.049 | [15] -0.021

UBAC1 (UniProt Q9BSL1)
inactive: erlotinib 0.011 | [1] 0.028 | [2] 0.049 | [3] -0.014 | [4] 0.027 | [5] 0.023 | [6] -0.009 | [7] -0.038 | [8] 0.004 | [9] -0.051 | IRAK-1-4 Inhibitor I 0 | ibrutinib -0.026 | [10] 0.024 | ralimetinib 0.011 | [11] -0.033 | [12] -0.108 | [13] 0.036 | pinometostat -0.024 | [14] 0.005 | [15] -0.086

The listing continues:

TUBA1C (UniProt Q9BQE3)
inactive: erlotinib 0.017 | [1] 0.031 | [2] 0.061 | [3] 0.046 | [4] 0.022 | [5] -0.035 | [6] 0.004 | [7] 0.007 | [8] 0.002 | [9] 0.099 | IRAK-1-4 Inhibitor I 0.038 | ibrutinib 0.058 | [10] 0.016 | ralimetinib -0.003 | [11] -0.024 | [12] 0.038 | [13] -0.022 | pinometostat -0.005 | [14] 0.028 | [15] 0.043

TXNDC17 (UniProt Q9BRA2)
inactive: erlotinib -0.049 | [1] 0.044 | [2] 0.112 | [3] -0.004 | [4] -0.033 | [5] -0.035 | [6] 0 | [7] -0.032 | [8] -0.046 | [9] 0.037 | IRAK-1-4 Inhibitor I 0.01 | ibrutinib 0.056 | [10] 0.039 | ralimetinib 0.04 | [11] -0.012 | [12] -0.028 | [13] -0.066 | pinometostat -0.031 | [14] 0.006 | [15] -0.021

TXLNG (UniProt Q9NUQ3)
inactive: erlotinib -0.005 | [1] -0.01 | [2] 0.045 | [3] -0.003 | [4] 0.029 | [5] 0.008 | [6] -0.008 | [7] 0 | [8] -0.001 | [9] 0.021 | IRAK-1-4 Inhibitor I 0.034 | ibrutinib -0.013 | [10] -0.063 | ralimetinib -0.008 | [11] -0.001 | [12] 0.035 | [13] -0.015 | pinometostat -0.037 | [14] -0.021 | [15] 0.051

TTMP isoform 3 (UniProt Q5BVD1)
inactive: erlotinib 0.266 | [1] -0.252 | [2] 0.022 | [3] -0.129 | [4] 0.253 | [5] -0.017 | [6] 0.021 | [7] 0.043 | [8] -0.082 | [9] 0.421 | IRAK-1-4 Inhibitor I 0.083 | ibrutinib 0.015 | [10] 0.012 | ralimetinib 0.182 | [11] -0.077 | [12] 0.083 | [13] 0.042 | pinometostat 0.01 | [14] -0.111 | [15] 0.196

TSNAX (UniProt Q99598)
inactive: erlotinib -0.03 | [1] -0.003 | [2] 0.026 | [3] 0.007 | [4] -0.013 | [5] 0.017 | [6] -0.032 | [7] -0.01 | [8] -0.01 | [9] 0.041 | IRAK-1-4 Inhibitor I 0.048 | ibrutinib 0.04 | [10] 0.005 | ralimetinib -0.039 | [11] -0.033 | [12] 0.062 | [13] -0.009 | pinometostat -0.041 | [14] 0.018 | [15] 0.009

From the supplement of paper PMC10849652
